{"source": "PubChem BioAssay AID1053208 (Peter MacCallum Cancer Centre, 2014)", "assay": "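Synthetic lethal interactions between gene loss and doxorubicin in osteosarcoma cells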 (primary screen)", "cell system": "mouse osteosarcoma cells, early-passage culture from an engineered mouse model of fibroblastic bone tumour", "reagents": "siRNA pool against mouse genes, 40 nM", "time to read-out": "about 120 h (48 h before drug, then 72 h with drug)", "conditions": "doxorubicin 100 nM for 72 h, roughly 30-40% inhibitory dose", "measured": "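Luminescent ATP signal taken as viability with or without 100 nM doxorubicin for 72 h; mean of two wells set against non-targeting siRNA and turned into robust z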", "reading the numbers": "viability z-score with doxorubicin: higher = more viable cells under doxorubicin; viability z-score without drug: higher = more viable cells with knock-down alone", "call rule": "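a pool counts as active when its viability z-score with doxorubicin is -2 or below and its z-score without drug lies between -2 and 2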", "note": "Shown is one part, drawn at random, of about 17,000 reagents. Of all reagents, 788 (4.7%) got an active call. 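Calls rest on z-score classes alone; an extra cut-off of viability at most 70% of control was not applied to them.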 Further read-outs or replicates are left out here. No sequences are given here."}
{"Target gene":"Tceal5 (transcription elongation factor A (SII)-like 5)","combined z-score class":"high cell count without drug only","viability z-score with doxorubicin":1.69,"viability z-score without drug":2.53,"Outcome":"inactive"}
{"Target gene":"Ppp1r1a (protein phosphatase 1, regulatory inhibitor subunit 1A)","combined z-score class":"no change with or without drug","viability z-score with doxorubicin":0.67,"viability z-score without drug":0.84,"Outcome":"inactive"}
{"Target gene":"Ap2a1 (adaptor-related protein complex 2, alpha 1 subunit)","combined z-score class":"no change with or without drug","viability z-score with doxorubicin":1.01,"viability z-score without drug":1.18,"Outcome":"inactive"}
{"Target gene":"Tmem91 (transmembrane protein 91)","combined z-score class":"no change with or without drug","viability z-score with doxorubicin":0.9,"viability z-score without drug":1.01,"Outcome":"inactive"}
{"Target gene":"2810408A11Rik (RIKEN cDNA 2810408A11 gene)","combined z-score class":"low cell count with doxorubicin only","viability z-score with doxorubicin":-2.02,"viability z-score without drug":-1.52,"Outcome":"active"}
{"Target gene":"Krt14 (keratin 14)","combined z-score class":"no change with or without drug","viability z-score with doxorubicin":-0.79,"viability z-score without drug":-1.18,"Outcome":"inactive"}
{"Target gene":"Mllt11","combined z-score class":"no change with or without drug","viability z-score with doxorubicin":-0.9,"viability z-score without drug":0,"Outcome":"inactive"}
{"Target gene":"Tmem179b (transmembrane protein 179B)","combined z-score class":"no change with or without drug","viability z-score with doxorubicin":0.56,"viability z-score without drug":1.01,"Outcome":"inactive"}
{"Target gene":"P2ry12 (purinergic receptor P2Y, G-protein coupled 12)","combined z-score class":"no change with or without drug","viability z-score with doxorubicin":-0.45,"viability z-score without drug":1.01,"Outcome":"inactive"}
{"Target gene":"Dcaf12 (DDB1 and CUL4 associated factor 12)","combined z-score class":"no change with or without drug","viability z-score with doxorubicin":0.45,"viability z-score without drug":0.51,"Outcome":"inactive"}
{"Target gene":"Hs3st3b1 (heparan sulfate (glucosamine) 3-O-sulfotransferase 3B1)","combined z-score class":"no change with or without drug","viability z-score with doxorubicin":0.67,"viability z-score without drug":1.85,"Outcome":"inactive"}
{"Target gene":"Nars2 (asparaginyl-tRNA synthetase 2 (mitochondrial)(putative))","combined z-score class":"no change with or without drug","viability z-score with doxorubicin":-0.34,"viability z-score without drug":-0.17,"Outcome":"inactive"}
{"Target gene":"Saxo4 (stabilizer of axonemal microtubules 4)","combined z-score class":"low cell count without drug only","viability z-score with doxorubicin":-1.57,"viability z-score without drug":-4.22,"Outcome":"inactive"}
{"Target gene":"Nkrf (NF-kappaB repressing factor)","combined z-score class":"no change with or without drug","viability z-score with doxorubicin":0,"viability z-score without drug":1.52,"Outcome":"inactive"}
{"Target gene":"Tcp11l2 (t-complex 11 (mouse) like 2)","combined z-score class":"no change with or without drug","viability z-score with doxorubicin":-0.45,"viability z-score without drug":0.51,"Outcome":"inactive"}
{"Target gene":"Gng8 (guanine nucleotide binding protein (G protein), gamma 8)","combined z-score class":"no change with or without drug","viability z-score with doxorubicin":0.34,"viability z-score without drug":1.18,"Outcome":"inactive"}
{"Target gene":"Clp1 (CLP1, cleavage and polyadenylation factor I subunit)","combined z-score class":"no change with or without drug","viability z-score with doxorubicin":-0.79,"viability z-score without drug":-1.18,"Outcome":"inactive"}
{"Target gene":"Dennd1c (DENN domain containing 1C)","combined z-score class":"no change with or without drug","viability z-score with doxorubicin":0.67,"viability z-score without drug":-1.18,"Outcome":"inactive"}
{"Target gene":"Vps39 (VPS39 HOPS complex subunit)","combined z-score class":"no change with or without drug","viability z-score with doxorubicin":-0.9,"viability z-score without drug":-0.67,"Outcome":"inactive"}

2 entries from above, showing only “viability z-score with doxorubicin”.
Ppp1r1a (protein phosphatase 1, regulatory inhibitor subunit 1A)	0.67
Ap2a1 (adaptor-related protein complex 2, alpha 1 subunit)	1.01
